# Laboratory results: patent publication US10563263B2, “Genetic polymorphisms associated with statin response and cardiovascular diseases, methods of detection and uses thereof” (CELERA CORPORATION, priority 2010, dated 2020)
# The source gives many values for each of these; only a part stands here.
# Test system: CHD
# Assay: Meta-analysis of CARE and WOSCOPS combined, synergy index, CHD endpoint
# Type: in vivo, human
# Description: Tables 4-5 provide meta-analyses of CARE and WOSCOPS combined (2nd section of each table) for two endpoints (CHD and CVD) and three genetic models (dominant, recessive, and additive), as well as logistic regression analyses of CARE (3rd section of each table) and WOSCOPS (4th section of each table) individually.
# Tables 12 and 17 provide results of meta-analysis of the CARE and WOSCOPS sample sets combined by direct genotyping and by imputing genotypes.
# “P” indicates the p-value, and “P(R)” (or “P.R.”) indicates the p-value random effect. Both of these are p-values corresponding to a statistical test of whether the combined synergy index is equal to one but use different assumptions to derive the p-value. “P” is calculated using a fixed effects model, and “P(R)” is calculated using a random effects model.
# “OR” indicates the odds ratio (synergy index) calculated from a fixed effects model, and “OR(R)” (or “OR.R.”) indicates the odds ratio (synergy index) calculated from a random effects model.
# [1] = rs10021016 allele G GENOTYPIC Genotyped
# [2] = rs10116807 allele A RECESSIVE Imputed
# [3] = rs10121941 allele C DOMINANT Imputed
# [4] = rs10128638 allele G DOMINANT Genotyped
# [5] = rs10183431 allele T DOMINANT Imputed
# [6] = rs10195401 allele C DOMINANT Imputed
# [7] = rs10239416 allele A DOMINANT Imputed
# [8] = rs10468988 allele G ADDITIVE Imputed
# [9] = rs10478919 allele G DOMINANT Imputed
# [10] = rs10506623 allele C DOMINANT Imputed
# [11] = rs10506626 allele A DOMINANT Imputed
# [12] = rs10509477 allele T DOMINANT Imputed
# [13] = rs10511071 allele C DOMINANT Imputed
# [14] = rs10511072 allele G DOMINANT Imputed
# [15] = rs10511199 allele C ADDITIVE Imputed
# [16] = rs10513283 allele G GENOTYPIC Imputed
# [17] = rs10520072 allele T DOMINANT Imputed
# [18] = rs10733846 allele G ADDITIVE Imputed
# [19] = rs10733846 allele G DOMINANT Imputed
# [20] = rs10737390 allele T DOMINANT Imputed
# [21] = rs10749293 allele G DOMINANT Imputed
# [22] = rs10752159 allele G DOMINANT Imputed
# [23] = rs10753760 allele T ADDITIVE Imputed
# [24] = rs10753760 allele T GENOTYPIC Imputed
# [25] = rs10757887 allele C DOMINANT Imputed
# [26] = rs10758326 allele A ADDITIVE Imputed
# [27] = rs10758326 allele A GENOTYPIC Imputed
# [28] = rs10758326 allele A RECESSIVE Imputed
# [29] = rs10762236 allele G ADDITIVE Genotyped
# [30] = rs10765769 allele C ADDITIVE Imputed
# [31] = rs10765769 allele C GENOTYPIC Imputed
# [32] = rs10784891 allele C ADDITIVE Imputed
# [33] = rs10784891 allele C DOMINANT Imputed
# [34] = rs10787923 allele G DOMINANT Imputed
# [35] = rs10787949 allele A DOMINANT Imputed
# [36] = rs10787951 allele G DOMINANT Imputed
# [37] = rs10787983 allele C DOMINANT Imputed
# [38] = rs10788380 allele C ADDITIVE Imputed
# [39] = rs10788380 allele C DOMINANT Imputed
# [40] = rs10788380 allele C GENOTYPIC Imputed
# [41] = rs10814418 allele G DOMINANT Imputed
# [42] = rs10831417 allele A ADDITIVE Imputed
structure (smiles),measurement,setting,value
"CC[C@H](C)C(=O)O[C@H]1C[C@H](O)C=C2C=C[C@H](C)[C@H](CC[C@@H](O)C[C@@H](O)CC(=O)O)[C@H]21 [Pravastatin, pravastatin]",OR,"rs9881685 allele A DOMINANT Imputed, P 4.29E−06",0.4876
same,OR(R),"rs9881685 allele A DOMINANT Imputed, P(R) 4.29E−06",0.4876
same,Meta-analysis OR,rs9896077 allele G vs A (ref),0.66
same,OR,"rs9936999 allele G DOMINANT Imputed, P 8.52E−05",1.8486
same,OR(R),"rs9936999 allele G DOMINANT Imputed, P(R) 8.52E−05",1.8486
same,OR,[1],2.2715
same,OR(R),[1],2.2715
same,Meta-analysis OR,"rs10106852, A1 (non-ref) G, A2 (ref) A",1.64
same,OR,[2],3.0277
same,OR(R),[2],3.0277
same,OR,[3],0.5093
same,OR(R),[3],0.5093
same,OR,[4],0.6023
same,OR(R),[4],0.6023
same,Meta-analysis OR,rs10155047 allele A vs G (ref),0.55
same,OR,[5],1.6438
same,OR(R),[5],1.6438
same,OR,[6],1.679
same,OR(R),[6],1.679
same,OR,[7],0.5939
same,OR(R),[7],0.5939
same,Meta-analysis OR,rs10305439 allele A vs C (ref),0.62
same,Meta-analysis OR,rs10429616 allele G vs A (ref),1.85
same,Meta-analysis OR,rs10444402 allele G vs A (ref),0.69
same,Meta-analysis OR,"rs10460737, A1 (non-ref) A, A2 (ref) G",0.24
same,OR,[8],1.5305
same,OR(R),[8],1.5305
same,OR,[9],0.5722
same,OR(R),[9],0.5722
same,Meta-analysis OR,rs10494924 allele C vs A (ref),0.64
same,OR,[10],0.6039
same,OR(R),[10],0.6039
same,OR,[11],0.5722
same,OR(R),[11],0.5722
same,OR,[12],1.6135
same,OR(R),[12],1.6135
same,OR,[13],1.9326
same,OR(R),[13],1.9381
same,OR,[14],1.9326
same,OR(R),[14],1.9381
same,OR,[15],1.5246
same,OR(R),[15],1.5246
same,OR,[16],3.6142
same,OR(R),[16],3.6142
same,OR,[17],0.5759
same,OR(R),[17],0.5759
same,OR,[18],0.5881
same,OR(R),[18],0.5881
same,OR,[19],0.5809
same,OR(R),[19],0.5809
same,OR,[20],0.5929
same,OR(R),[20],0.5929
same,OR,[21],1.6321
same,OR(R),[21],1.6316
same,OR,[22],1.5856
same,OR(R),[22],1.5961
same,OR,[23],1.4355
same,OR(R),[23],1.4355
same,OR,[24],2.1142
same,OR(R),[24],2.1142
same,OR,[25],0.604
same,OR(R),[25],0.604
same,OR,[26],0.7335
same,OR(R),[26],0.7335
same,OR,[27],0.5194
same,OR(R),[27],0.5194
same,OR,[28],0.603
same,OR(R),[28],0.603
same,OR,[29],0.6093
same,OR(R),[29],0.6093
same,OR,[30],1.474
same,OR(R),[30],1.474
same,OR,[31],2.1499
same,OR(R),[31],2.1499
same,OR,[32],0.711
same,OR(R),[32],0.711
same,OR,[33],0.5722
same,OR(R),[33],0.5722
same,OR,[34],1.6581
same,OR(R),[34],1.6522
same,OR,[35],1.6068
same,OR(R),[35],1.5927
same,OR,[36],1.6068
same,OR(R),[36],1.5927
same,OR,[37],1.6153
same,OR(R),[37],1.6079
same,OR,[38],1.3678
same,OR(R),[38],1.3678
same,OR,[39],1.7138
same,OR(R),[39],1.7138
same,OR,[40],1.8999
same,OR(R),[40],1.8999
same,OR,[41],0.5119
same,OR(R),[41],0.5119
same,Meta-analysis OR,"rs10817479, A1 (non-ref) A, A2 (ref) G",1.66
same,OR,[42],1.4929
same,OR(R),[42],1.4929
same,OR,rs10831417 allele A GENOTYPIC Imputed,2.3097
